# Measurements taken from PubChem BioAssay AID2685 (National Center for Advancing Translational Sciences (NCATS), 2010).
# Where “and” joins values, the source holds several entries; their conditions need not be identical. Identical values can stand only once. This is one part of the list. Further columns of the screen follow, without active or inactive calls. Compounds called inactive in the main read-out are mostly missing here. Potencies come from curve fits of mixed quality, noted in brackets.
# Assay: qHTS Assay for Lipid Storage Modulators in Drosophila S3 Cells;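 on cell number change: cells counted by Cell Tracker Red CMTPX staining in the red channel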
# Conditions: BODIPY lipid droplet fluorescence, 18-24 h; for cell number change: measured here: cell count max response, cells fed with added oleic acid
# Outline: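 Drosophila S3 cells loaded with oleic acid (400 uM, as added) and compounds at several concentrations; lipid droplets imaged by 488-nm laser-scanning cytometry, 500–530 nm intensity and object ratio to cell channel. Percent activity normalized to 20 uM Triacsin C.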
# [1] = measured here: lipid fluorescence (Fed channel) AC50, cells fed with added oleic acid
# [2] = measured here: cell number channel AC50, cells fed with added oleic acid
Compound,cell number change,AC50 [1],AC50 [2]
COc1cccc(OC)c1C(=O)Nc1cccnc1,-22.4%,,
COc1cccc(OC)c1C(=O)NC(=S)N1CCOCC1,22%,"29.1 µM [rising, single point]",
Cc1ccc(S(=O)(=O)N2CCN(C(=O)CSc3nc4ccccc4o3)C2)cc1,-14%,"18.4 µM [falling, single point]",
COc1ccc(C2=NS(=O)(=O)N(C)C(C(=O)NCc3ccccc3)=C2)cc1OC,2.88%,"32.6 µM [falling, single point]",
N#Cc1ccc(N=c2ssnc2Cl)cc1,-91% and -82.2%,"18.4 µM [falling, partial curve] and 5.8 µM [falling, single point]","23.1 µM [falling, partial curve] and 11.6 µM [falling, partial curve]"
O=C(Nc1nccs1)c1cc(S(=O)(=O)N2CCOCC2)ccc1Cl,-18%,,
O=C1CC(C(=O)Nc2cccc(Cl)c2)n2ncnc2N1 (centres undefined),-28.9%,"16.4 µM [falling, single point]",
CC(C)C(c1nnnn1Cc1cccs1)N1CCN(C(=O)c2ccco2)CC1 (centres undefined),12.3%,,"6.51 µM [rising, single point]"
O=C(Nc1ccccc1)c1ccccc1NC(=O)C(F)(F)F,-21.8%,"29.1 µM [rising, single point]","6.51 µM [falling, single point]"
COc1ccc(OC)c(CCNC(=O)c2ccc(NC3=NC4CS(=O)(=O)CC4S3)cc2)c1 (centres undefined),35.7%,,"0.651 µM [rising, partial curve]"
CSc1ccccc1OCc1cc(C(=O)N2CCN(c3ccccc3)CC2C)no1 (centres undefined),31.2%,,"22.4 µM [rising, partial curve, poor fit]"
N#CC1=C2SCC(O)(c3ccccc3)N2C(=O)CC1c1ccccc1 (centres undefined),-3.64%,,
CCOc1ccc2[nH]c(=O)c(C(c3nnnn3C3CCCCC3)N3CCN(C)CC3)cc2c1 (centres undefined),18.3%,"20.6 µM [rising, single point]",
COC(C)(C)[C@@H](O)COc1c2ccoc2cc2oc(=O)ccc12,1.32%,"5.17 µM [rising, partial curve, poor fit]",
O=C(NC1CCCCC1)N1CCC(n2cnc3ccccc32)CC1,0.203%,"6.51 µM [falling, partial curve]",
COc1ccc(C(=O)N2CCN(c3ccccc3)CC2)cc1S(=O)(=O)N1CCOCC1,,"4.11 µM [falling, full curve]",
Cc1cc(C)c(NC(=O)CSc2nc(COc3ccccc3)nc3ccccc23)c(C)c1,-23.1%,"6.51 µM [falling, single point]",
COc1ccc(C2=NN(C(=O)c3cccs3)C(c3ccccc3O)C2)cc1 (centres undefined),-36.2%,"23.1 µM [falling, single point]","20.6 µM [falling, single point]"
COc1ccccc1OCCNc1cc(N2CCOCC2)ccc1[N+](=O)[O-],,"20.6 µM [rising, single point]",
CCOC(=O)CSC1=C(C#N)C(c2sccc2C)CC(=O)N1 (centres undefined),58.2%,,"29.1 µM [rising, single point]"
COCC(=O)Nc1ccc(N2CCN(c3ccccc3)CC2)c(F)c1,,"0.58 µM [rising, single point]",

Compound,cell number change,AC50 [1],AC50 [2]
CCOc1ccc(-c2nc(N)ncc2Oc2ccccc2Br)c(O)c1,-42%,"3.66 µM [rising, full curve]","29.1 µM [falling, single point]"
CCCn1nnc(NC(=O)c2ccc(-c3cc(Cl)ccc3Cl)o2)n1,-26.6%,,
O=C1C=C(c2ccc(Cl)cc2)OC2(CCCC2)O1,-17.7%,"0.92 µM [falling, partial curve]",
COCCNC(=O)c1ccc(C)c(S(=O)(=O)Nc2ccc(C)cc2)c1,50.3%,,"29.1 µM [rising, single point]"
Cc1nc(Cl)c(C(=O)NCc2ccccc2)c(C)c1Cl,30.2%,,"29.1 µM [rising, single point]"
CC1=NN(C(=O)c2ccc(Cn3cc([N+](=O)[O-])cn3)cc2)C(O)(C(F)(F)F)C1 (centres undefined),27.9%,"0.058 µM [rising, full curve, poor fit]",
COc1ccc(C(=O)Nc2ccccn2)cc1,23.6%,"23.1 µM [rising, partial curve, poor fit]",
Nc1ccc(S(N)(=O)=O)cc1N,-11.7%,"32.6 µM [falling, single point]",
Cc1cccc(CN2CCC(CNC(=O)C3CCCN(S(=O)(=O)c4cnc[nH]4)C3)CC2)c1 (centres undefined),-29.6%,"14.6 µM [falling, partial curve]","0.92 µM [falling, full curve]"
O=C(NCCc1ccccc1Cl)c1ccc2nc3ccccc3c(=O)n2c1,2.11%,,
Cc1cccc(OCC(=O)O/N=C(\N)Cc2ccc(Cl)cc2)c1,-2.37%,,"0.517 µM [falling, single point]"
Cc1cc(NC(=O)C2CCCCC2)ncc1NC(=O)c1ccccn1,0.894%,"0.411 µM [falling, partial curve, poor fit]","0.326 µM [falling, partial curve, poor fit]"
O=C(NC1CC1)C1CCCN1S(=O)(=O)c1ccc2ccccc2c1 (centres undefined),9.3%,"0.82 µM [falling, single point]",
O=C(Cn1c(=O)oc2cc(S(=O)(=O)NCc3ccccc3)ccc21)N1CCCC1,12.8%,,
C=CCOC(=O)C1=C(C)NC(=O)NC1C1CC=CCC1 (centres undefined),-14.1%,,
COc1ccc2nc(NC(=O)C3CCN(S(=O)(=O)c4cccs4)CC3)sc2c1,40.8%,"6.51 µM [rising, single point]","4.61 µM [rising, full curve]"
Cc1[nH]c2ccc(S(N)(=O)=O)cc2c1C,0.407%,"0.82 µM [rising, full curve, poor fit]",
CCCn1nc(NC(=O)C(C)(C)C)c2cc3cc(OC)ccc3nc21,-2.7%,"29.1 µM [rising, single point]",
NCC(c1ccccc1Cl)c1c[nH]c2ccccc12 (centres undefined),-23.6%,"29.1 µM [rising, single point]",
Clc1ccc(Nc2nc(-c3cccs3)cs2)nc1,,"2.31 µM [rising, partial curve]","2.06 µM [rising, partial curve]"
Cn1[nH]c(=O)c(Cl)c(Cl)c1=O,-18%,,

Compound,cell number change,AC50 [1],AC50 [2]
Cc1ccc(S(=O)(=O)CCc2nnc(NC(=O)c3ccccn3)s2)cc1,-40.9%,"0.00517 µM [falling, full curve]",
Cc1ccc(Cl)cc1NC(=O)C(=O)N1CCCCC1,42.1%,"14.6 µM [rising, partial curve]","1.03 µM [rising, full curve, poor fit]"
FC(F)(F)c1cccc(Nc2nc(N3CCOCC3)nc(N3CCOCC3)n2)c1,-9.07%,"0.82 µM [rising, full curve]",
Cc1ccc(NCc2nnc(SCC(=O)c3ccccc3)n2Cc2ccco2)c(C)c1,4.57%,"2.31 µM [rising, partial curve]",
O=S(=O)(NCc1ccccc1)c1ccc(F)cc1Br,16.3%,,
O=[N+]([O-])c1cccc2ccc(/C=C/c3ccc(F)cc3)nc12,33.3%,"0.517 µM [rising, full curve]","32.6 µM [rising, single point]"
CCOCCOC(=O)c1ccc(NC(=O)C2COc3ccccc3O2)cc1 (centres undefined),-4.67%,,"5.17 µM [falling, single point]"
O=c1[nH]c2c(s1)C(c1ccco1)C1C3CCC(C3)C1S2 (centres undefined),36.3%,,"32.6 µM [rising, single point]"
O=C(CSc1nn(-c2ccc(Cl)cc2)c(=S)s1)NCC1CCCO1 (centres undefined),33%,,"13 µM [rising, single point]"
COc1ccc(NC(=O)c2cc(Br)c(Br)s2)cn1,9.29%,,
O=C(NCc1ccc2c(c1)OCO2)Nc1ccc(F)cc1,-33.9%,,
COc1ccc(NC(=O)C2CCCN2S(=O)(=O)c2cccc3cccnc23)cc1OC (centres undefined),-64.6%,,"18.4 µM [falling, single point]"
O/N=C1\CCCC\C1=C/c1ccccc1,20.3%,"5.8 µM [falling, full curve]",
O=C(CCc1nnc(CCCCc2ccccc2)o1)NCc1cc(F)ccc1F,-15.3%,"29.1 µM [falling, single point]",
CCOc1ccc(NC(=O)CN(C)C(=O)c2cccnc2Sc2ccc(C)c(C)c2)cc1OCC,-18.8%,"0.58 µM [falling, single point]",
Cc1cccn2c(=O)c3cc(C(=O)NC4CCCC4)n(C)c3nc12,21.4%,"6.51 µM [falling, single point]",
CCCCn1c(N)c(N(CCOC)C(=O)c2cccc(S(=O)(=O)N3CCCCCC3)c2)c(=O)[nH]c1=O,-10.4%,,
Cc1cccc(N(C)S(=O)(=O)c2cc3c(cc2C)n(C)c(=O)c(=O)n3C)c1,,"23.1 µM [falling, single point]",
COc1ccccc1NC(=O)C(=O)NNC(=O)c1ccco1,,"0.58 µM [rising, full curve]","0.461 µM [rising, full curve]"
CCc1cc(CNC(=O)c2ccc(OC3CCN(C(C)=O)CC3)c(OC)c2)on1,-3.05%,"18.4 µM [falling, single point]",
O=C(CNC(=O)c1cccs1)OCc1ccc(Cl)cc1,-18.1%,"29.1 µM [falling, single point]",
